## Results from one PubChem assay

Data taken from PubChem BioAssay AID1159506, deposited by NCATS (2015).

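Genome-wide siRNA knockdown in TC32 Ewing sarcoma cells, comparing luciferase light from an NR0B1-promoter reporter with a CMV-promoter reporter 48 hours after transfection.
Each siRNA was applied at 20 nM.
A z-score of the log NR0B1-over-CMV signal, less the median of siRNAs with the same seed; more negative means a stronger specific loss of the NR0B1 reporter.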

This is part of the screen; most of the strongest results are not listed here.
Sequences are the guide (antisense) strand, without overhang.

strand	target gene	seed-corrected z-score
UAAACAGCAAGGAACGAGG	SLC35E2	0.4396
UUUGACAUCCUUACUGUUG	CAP1	0.2199
UUUGCGUUGUGAUCUAGGC	LONRF3	-0.09658
UACCACACGGUGUAGGUCG	FAM43B	0.133
UGAGUGAGCUGCUUGACCU	ELFN1	0.2468
UUGGAUUUCCGGAUUUUCG	PHF13	0.007993
AAAUAUGUUCUCCUUGUCC	ZNF775	-0.04808
UUCAUGUUGCUGGAUUUCC	SUN2	0.512
UAUUCUGUGCAGCUGUUGC	C10orf111	-0.8575
ACUUCGUAUAGAAACUUGC	ORMDL1	-0.3575
UUCAUGUCGUUCUACAGCC	FAM162B	0.6347
UUUUCUUGAAUAUAACUUG	LOC645485	1.297
UCAUCUGUCCCGUUGAUAC	HOMER1	-0.2725
UCAGUGCUCUGGUAUCAGC	CCR3	-0.03486
AACUUUCACGUUGAGAGGC	KRT2	-0.8462
AUUGCUCUUACGGAUCUUC	FUNDC2	-0.1769
UUUGGGAUGAGUCGAGCAG	GRAMD1C	0.7566
UUUCUAUUCAGAAGCAUCC	BIRC7	-0.681
UUAACUACUGAAGAGUCCG	ANGPTL5	0.05389
ACCGUUUCUGGAAAUGCGC	HEATR5B	-0.7882
AUUCCUUGCAGAUACCUCC	NEURL3	-0.01311
UUCUUCACACGAUCCGCUG	UPF1	0.3393
UACAGGACCAAGAUACUGA	CALCB	-0.4102
UGUGAAGUGAGGGAAUAAC	TPRX1	-0.2327
UUCGGAUCAAGGUGCCACU	LOC649305	-1.795
UGAUCUUUGGGCGAUGUUC	HMGB2	-0.9127
UUUAGUAGAACAUACUCCU	ESRRA	0.01542
UCCCUUUCAAGAUUAGUAG	GML	0.02965
UUCCUCUAUAUGGAACACG	CAPN1	-0.4381
AAGUUUAUGAGGUAACUCA	OR2M2	0.3055
UAUUGUUGACCUGAAUUCG	TRERF1	0.2796
UAACUUGCUGGAUGGAGCC	METRNL	-1.299
UCUGGACCCAGCAUAGAUU	TMEM241	-0.4576
AGAGCAAUCACUGUACCUG	PCDHGA11	-0.3736
AAUCUGAACAGAAAUCCAG	ZNRD1	-0.1946
UUUCUUGUCUCCCACGUGG	CSF3	1.671
AAUCUAGUAAGCUUCCAUC	TCF7L2	-0.3304
UACGCUUUACAUCUUCUUG	RANBP17	0.7736
UUUUGUCAGAACUAUCUCC	FAAHP1	-0.6456
UAUUCUACUUGGUAGAGCC	PSMA6	0.4407
UGUUCUGAUACGUUAACUC	LRRFIP1	1.857
UUUCUUUGCAUAAUCCAGG	RPS24	0.9362
AAGGUCAUCAGGUAGACGG	TMEM175	0.4718
AAUAUACUCACAUGCACUC	B3GALT5-AS1	0.639
UGAUGACUAAUAUCCGUCG	LONRF2	-0.6996
UAAGAAACGAGUCAAUUUC	PLCXD2	0.05404
UCAUCCGACAGGUCUAAGC	PIK3C3	0.08878
UGAAGAAAAACUCUCGCUC	HOXC11	0.03348
UGCUGAUCCAGCUUCUACC	TMEM41B	-1.05
UUUGUGAGUUCCCUUAAUC	HEATR9	-0.2563
AACCGCACAAAACAAGCCC	TMC2	-0.485
UUGGGUUGAGCUAUCUUGC	ADAMTS12	0.8123
UCAGGGCACGCGUUUUCUC	C8orf4	-0.8814
UUCCGAAUAGAAAGCAUCG	SLC30A6	-0.08452
UGUGCUACAAGAGCAAGUG	DMXL1	1.772
UUCCUCUAAAUCGACCCUG	POLR3A	0.259
UUGCGUAUUGUUCAUAGGG	DNAJC6	0.08481
UCCGCAAAAACUACGCUGC	DOCK2	-0.2589
UAAGCUUGAGGAAACAGUG	ZNF121	0.7273
UCUUUGUCCCGAAGUGUCU	MYO1G	-0.5673
UUGCAUACCAGCUGCAUGG	SPATA32	0.354
AUUCGUUACAUCUAUAUGG	ZNF329	0.6658
UUCCUUAUCGCCUUGGAUC	TRIM59	-0.3107
UCCCUUGUAACUUGGGUUC	SHC4	0.4526
AUAGGCACUGUCCACAUCC	KRT3	0.02261
AAGACUGUCACAACCAUGC	C21orf2	0.6336
UGAAUUAUCACACUUACAC	ITGBL1	0.7056
UGUUAGAAUAUCUACAAUC	CKAP2	0.5652
AAACUUAGAAUUGCGGUCU	GPR4	-0.2718
UUUAUAACCAAUCCGAUCA	CDC26	0.3567
UACUUGCAAAGUUUAAGCC	EVL	0.3695
ACAGAGGCAAGUUUGAAAC	RABGAP1L	0.2799
UCCGGGUUGAUAAUGUCCU	DMAP1	-0.6066
UGGUCGGUAAAUGUCUUCC	BCAT2	-0.5774